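A cell-based FRET test of anthrax lethal toxin entry, tracked through the 460 nm emission signal; the cell line is not named here.
Each compound was tested as a concentration series from about 0.0005 to 40 µM.
The number is the fitted AC50 of the 460 nm signal alone; lower values mean a more potent effect. A falling signal goes with compounds filed as inhibitors or cytotoxic, a rising one with activators or fluorescent compounds (inferred from the filed classes).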

Values are in nM.
Common to all entries: measured here: 460 nm channel.
This is a side read-out of the assay, for part of the compounds, not drawn at random.
Potencies fitted to partial, single-point or poorly fitting curves are rough.
The first word of each remark tells which way the curve ran; it can be opposite to the aim of the assay.

| Compound | AC50 (nM) | remark |
|---|---|---|
| `CC(C)CN1CCCC2(CCN(C(=O)c3csnn3)CC2)C1` | 31622 | falling, single point |
| `O=C(c1ccc(Cl)cc1)C1CCN(C(=O)N2CCOCC2)CC1` | 10000 | rising, single point |
| `COc1ncc2nc(-c3cc(F)cc(F)c3)c(=O)n(CCc3ccccc3)c2n1` | 12589 | rising, single point |
| `O=S(=O)(c1ccc(F)cc1)N1CCC(N2CCCC2)CC1` | 31622 | falling, single point |
| `CO[C@@H]([CH2][Hg])CN1C(=O)c2ccccc2S1(=O)=O.Cn1c(=O)c2nc[nH]c2n(C)c1=O` | 2512 | rising, partial curve |
| `O=C(CSCC(=O)NCc1ccco1)NCc1ccco1` | 5012 | rising, single point |
| `CN1CCN(C(=O)c2ccc3c(c2)N(Cc2cccc(Cl)c2)C(=O)c2ccccc2S3=O)CC1` (centres unmarked) | 631 | rising, full curve |
| `Cc1ccc(C(=O)Cn2c3c(sc2=N)CCCC3)cc1` | 19952 | falling, partial curve |
| `COc1ccc(NC(=O)CN2C(=O)C(C)Oc3ccccc32)cc1` (centres unmarked) | 31622 | falling, single point |
| `COC(=O)c1c(-c2ccc(F)cc2)csc1NC(=O)c1ccco1` | 10000 | rising, single point |
| `COc1ccc(NC(=O)c2ccc(Cl)c(S(=O)(=O)N3CCc4ccccc4C3)c2)cn1` | 3981 | falling, partial curve |
| `OCC1OC(n2nc3ccccc3n2)C(O)C(O)C1O` (centres unmarked) | 19952 | rising, partial curve |
| `O=C(Nc1cnn(Cc2ccccc2)c1)c1cc2nc(-c3ccco3)cc(C(F)(F)F)n2n1` | 25118 | falling, single point |
| `Cc1ccc(/C(C#N)=C/c2cccc([N+](=O)[O-])c2)cc1` | 3162 | falling, single point |
| `COCCNC(=O)Nc1ccc2c(c1)N(C)C(=O)CS2` | 3981 | rising, partial curve |
| `CCC(C)n1c(SCC(=O)NC(=O)Nc2ccc3c(c2)OCCO3)nc2ccccc2c1=O` (centres unmarked) | 31622 | falling, single point |
| `O=C(Cc1ccccc1)n1nc(-c2ccccc2)nc1NCc1ccco1` | 15848 | falling, partial curve, poor fit |
| `COc1ccc(-c2ccc(-c3noc(-c4ccco4)n3)c(OC)n2)cc1` | 10000 | falling, single point |
| `CC(C)NC(=O)CCCn1c(=S)[nH]c2cc3c(cc2c1=O)OCO3` | 12589 | rising, partial curve |
| `CCC1CCCCN1C(=O)COC(=O)c1cc2ccccc2cc1O` (centres unmarked) | 5012 | rising, single point |
| `CC(=O)Nc1ccc(-c2cc(C(=O)O)c3cc4ccccc4cc3n2)cc1` | 1585 | falling, partial curve, poor fit |
| `CC(C)(C)c1ccc(O)c(O)c1` | 15848 | falling, partial curve |
| `CCOC(=O)C1CCCN(C(=O)c2cn(C)c3ccc(S(=O)(=O)N(C)C)cc3c2=O)C1` (centres unmarked) | 7943 | rising, partial curve |
| `O=C(NCc1cccnc1)C1CCN(S(=O)(=O)N2CCOCC2)CC1` | 12589 | falling, partial curve, poor fit |
| `c1ccc(Cn2c(-c3ccco3)nc3nc4ccccc4nc32)cc1` | 7943 | rising, partial curve |
| `CCOc1ccc(NC(=O)C2CC(=O)N(c3cc(C)cc(C)c3)C2)cc1` (centres unmarked) | 3162 | falling, full curve, poor fit |
| `CCCCCCCCCCCCOS(=O)(=O)O` | 100 | falling, full curve, poor fit |
| `CCCCNc1ncnc2c1cnn2-c1ccc(Cl)cc1` | 5012 | falling, partial curve |
| `CCn1c(SCC(=O)Nc2ccc3c(c2)OCO3)nc2c(c1=O)SC(C)C2` (centres unmarked) | 1995 | rising, full curve, poor fit |
| `CCCCOc1ccccc1NC(=O)Cn1c(-c2nonc2N)nc2ccccc21` | 1995 | falling, full curve, poor fit |
| `CCc1ccc(OC(=O)c2ccn(CC)n2)cc1` | 6310 | falling, partial curve |
| `CCOC(=O)CNC(=O)c1ccc2[nH]c3c(c2c1)CCCC3` | 12589 | falling, single point |
| `COc1ccc(-c2nc3cnc(N4CCNCC4)nc3n(Cc3cccs3)c2=O)cc1` | 2512 | rising, full curve |
| `O=[N+]([O-])c1cc([N+](=O)[O-])c2ccccc2c1` | 158.5 | falling, full curve, poor fit |
| `CCOC(=O)c1cc(-c2ccccc2)sc1N` | 6310 | falling, partial curve |
| `Fc1cc2ncn(Cc3ccccc3)c2cc1F` | 199.5 | falling, full curve |
| `O=C(c1ccco1)N1CCC2(CC1)CN(c1ncccn1)C2` | 5012 | falling, single point |
| `CCn1c(SCC(=O)NCCc2ccc(Cl)cc2)nnc1-c1cccs1` | 10000 | falling, partial curve |
| `COc1ccc(-c2nc3cnc(Nc4ccccc4)nc3n(CCC#N)c2=O)cc1` | 158.5 | falling, full curve |
| `Cn1c(=O)c(-c2ccc(Cl)cc2)nc2cnc(N3CCNCC3)nc21` | 1259 | rising, full curve |
| `O=c1c2[nH]c3ccc(F)cc3c2ncn1CCCN1CCOCC1` | 125.9 | rising, full curve, poor fit |
| `O=C(Nc1ccc(-c2noc(-c3cccs3)n2)cc1)c1cccnc1` | 12589 | falling, single point |
| `CC(=O)C(C)Oc1cc(C)cc2oc(=O)c(C)c(C)c12` (centres unmarked) | 100 | falling, full curve |
| `CN(C)c1ccc(P(=O)(OCc2ccccc2)C(O)c2ccncc2)cc1` (centres unmarked) | 1000 | falling, full curve, poor fit |
| `Clc1ccc(-c2nnc(NC3=NCCCCC3)o2)cc1` | 25118 | rising, single point |
| `COC(=O)c1[nH]c2cccc(C)c2c1NC(=O)CN1CCCc2ccccc21` | 31.62 | rising, full curve, poor fit |
| `COc1ccc(-n2c(=O)c(-c3cn(C)c4ccccc34)nc3cncnc32)cc1` | 1259 | rising, partial curve, poor fit |
| `Cc1nc(-c2ccc(S(=O)(=O)N3CCCCCC3)cc2)cs1` | 6310 | falling, partial curve |
| `COCCSc1ccccc1C(=O)NCc1ccco1` | 1995 | rising, full curve, poor fit |
| `c1ccc(N2CCCCC2)c(NC2=NCCC2)c1` | 5012 | rising, single point |
| `C(=C\c1ccccc1)/CN1CCN(Cc2ccc3c(c2)OCCO3)CC1` | 6310 | falling, partial curve |
| `COC(=O)[C@H](C)NC(=O)Nc1ccc(C)c(C)c1` | 10 | falling, full curve, poor fit |
| `Cc1c(C(=O)Nc2ccc(F)cc2)oc2ccc(S(=O)(=O)N3CCCC3)cc12` | 7943 | falling, partial curve |
| `COc1cccc(NC(=O)Cc2nnc(SCCOc3ccccc3)n2C)c1` | 1259 | rising, partial curve, poor fit |
| `O=C(Nc1nnc(C2CC2)s1)c1cc(-c2ccccc2)nn1-c1ccccc1` | 5012 | rising, single point |
| `CC(C)CN1CCCC2(CCN(C(=O)c3cccn3C)CC2)C1` | 1259 | rising, partial curve |
| `Cc1ccc(S(=O)(=O)/C=C\C#N)cc1` | 1995 | falling, full curve |
| `N=C(C[C@@H](O)COc1ccccc1-c1ccccc1)N1CCCCC1` | 25118 | falling, partial curve, poor fit |
| `CN1CCc2c(sc3c2C(=O)NC(c2ccco2)N3)C1` (centres unmarked) | 1000 | rising, full curve, poor fit |
| `CCN(N=O)C(N)=O` | 31622 | falling, partial curve |
| `COc1cccc(Nc2ncc3nc(C)c(=O)n(CCc4ccccc4)c3n2)c1` | 25118 | rising, single point |

Repeated from the top, 7 entries:

Compound	AC50 (nM)	remark
CC(C)CN1CCCC2(CCN(C(=O)c3csnn3)CC2)C1	31622	falling, single point
O=C(c1ccc(Cl)cc1)C1CCN(C(=O)N2CCOCC2)CC1	10000	rising, single point
COc1ncc2nc(-c3cc(F)cc(F)c3)c(=O)n(CCc3ccccc3)c2n1	12589	rising, single point
O=S(=O)(c1ccc(F)cc1)N1CCC(N2CCCC2)CC1	31622	falling, single point
CO[C@@H]([CH2][Hg])CN1C(=O)c2ccccc2S1(=O)=O.Cn1c(=O)c2nc[nH]c2n(C)c1=O	2512	rising, partial curve
O=C(CSCC(=O)NCc1ccco1)NCc1ccco1	5012	rising, single point
CN1CCN(C(=O)c2ccc3c(c2)N(Cc2cccc(Cl)c2)C(=O)c2ccccc2S3=O)CC1 (centres unmarked)	631	rising, full curve

Source: PubChem BioAssay AID912 (NCATS, 2007).